No constants are given. Whether binding was seen depends on the method and setting.
Biological target: B-gal
Test: Western blot of lysates of transfected COS cells after SDS-PAGE, probed with mAb 1D9

B1: murine monoclonal antibody 1D9 (antibody, IgG1, V domains shown)
VH: EVKLVESGGGLVKPGGSLKLSCAASGFTFSGYGMSWVRQTPEKRLEWVATISGLGGYTYYPDSVKGRFTISRDNAKNTLYLQMSSLRSDDTAFYYCARRFYGDYVGAMDYWGQGTSVTVSS
VL: DILMTQAAFSNPVTLGTSASISCRSSKSLLHSNGITYLYWYLQKPGQSPQLLIYQMSNLASGVPDRFSCSGSGTDFTLSISRVEAEDVGFYYCAQNLELPFTFGSGTKLEIE
binding: no binding

Reference: patent US20050058645A1
